Source: patent US20230235036A1, “ACVR1 (ALK2) RECEPTOR INHIBITION TO TREAT NEUROLOGICAL DISEASES” (The J. David Gladstone Institutes, a testamentary trust …, priority 2020, published 2023)

Tested on: primary rat OPCs
Assay: OPC-X-screen: OPC differentiation to MBP+ OLs or GFAP+ astrocytes in presence of fibrinogen
Type: cell-based
Settings: myelin-promoting compound screen; fibrinogen 1.5 mg/ml; 3 days; benztropine, clemastine, quetiapine, miconazole, (±)U-50488 1 μM, clobetasol 5 μM, XAV-939 0.1 μM, DMH1 1 μM

For `CN1CCC[C@@H]1CCO[C@](C)(c1ccccc1)c1ccc(Cl)cc1` [clemastine], the “OPC differentiation to mature MBP+ OLs under extrinsic inhibition by fibrinogen” value was “did not overcome extrinsic inhibition of OPC differentiation by fibrinogen”.
